Laboratory results as given in patent publication US20250382261A1 (The Broad Institute, Inc., priority 2021, published 2025).
“And” between values parts separate entries of the source, which are not always exact repeats. Equal values may be shown once. The name of at least one read-out is uncertain. Some results were stated once for a whole list of compounds, not compound by compound.

Tested on: A. baumannii (ATCC 17978)
Experiment: Checkerboard potentiation assay with novobiocin
Type: cell-based
Experimental: Bacterial strains and culture conditions. The following bacterial strains were used within this study; A. baumannii (ATCC 17978), K. pneumoniae (ATCC 43816), K. pneumoniae (ATCC 43816, expressing pGDP2:mcr-1), P. aeruginosa (PA01). Bacterial growth was in cation-adjusted Mueller-Hinton broth (MHB) at 37° C., and inoculum was prepared according to CLSI protocol (CLSI 2015).
Potentiation assays. Checkerboard analyses were conducted with each drug serially diluted at eight concentrations to create an 8×8 matrix. At least two biological replicates were done for each combination, and the means were used for FIC calculation. The FIC for each drug was calculated by dividing the concentration of the drug in the presence of codrug in a combination for a well showing <10% growth by the MIC for that drug alone. The FIC index (FICI) is the sum of the two FICs, with an FIC index≤0.5 deemed synergistic.

SMILES	FICI AB
CC(CCCC(C)Oc1ccc(C(=N)N)cc1)Oc1ccc(C(=N)N)cc1 (centres unmarked) [Analog P15]	0.094 and 0.1875
N=C(NC1CCCCC1)c1ccc(OCCCCCOc2ccc(C(=N)NC3CCCCC3)nc2)cn1 [Analog P18]	> 0.5 and 0.817
